Measurements reported in PubChem BioAssay AID1508588 (Peter MacCallum Cancer Centre, 2020)

- Assay: 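Knock-downs boosting vemurafenib effects on melanoma cell growth or lactate release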 (primary screen)
- System: human WM266.4 melanoma cells (BRAF V600 mutant)
- Reagent: siRNA pool against human genes, 40 nM
- Time to read-out: 96 h from transfection to read-out
- Treatment: vemurafenib 300 nM (about IC25), added 48 h after transfection, for 48 h; comparison arm got DMSO vehicle only
- Measurement: 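Cell gain (DAPI nuclei at end minus before drug, mean of two replicates) and medium lactate by absorbance per cell, both as ratio to non-targeting siRNA, also grouped into fold-change classes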
- Reading the numbers: cell gain with vemurafenib: higher = more cell gain than with non-targeting siRNA; lactate per cell with vemurafenib: higher = more lactate made per cell
- Call rule: 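a knock-down counts as enhancing when its fold-change classes with vehicle and with vemurafenib, taken together, show a stronger drug effect on cell gain or lactate per cell; exact class pairs not stated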
- Calls: active = enhances vemurafenib effect; inactive = no enhancement seen
Here is a random part of about 18,000 reagents tested. 790 of all reagents (4.4%) count as active. 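Calls rest on a combination of fold-change classes in drug and vehicle arms, not all shown here.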 A number with no mark means an inactive call.

PPEF2 [SID134316534] → cell gain with vemurafenib = 0.57; lactate per cell with vemurafenib = 2.17
LRRC45 [SID134320861] → cell gain with vemurafenib = 0.55; lactate per cell with vemurafenib = 0.66
NAE1 [SID135621191] → cell gain with vemurafenib = 0.73; lactate per cell with vemurafenib = 1.66
MPO [SID134313995] → cell gain with vemurafenib = 0.68; lactate per cell with vemurafenib = 0.7
GRIN2D [SID152153344] → cell gain with vemurafenib = 0.48; lactate per cell with vemurafenib = 0.54
ANKRD11 [SID152148091] → cell gain with vemurafenib = 0.79; lactate per cell with vemurafenib = 0.74
IAPP [SID135621444] → cell gain with vemurafenib = 0.6; lactate per cell with vemurafenib = 0.28
TCFL5 [SID134314321] → cell gain with vemurafenib = -0.22; lactate per cell with vemurafenib = 1.66
HUS1B [SID152156059] → cell gain with vemurafenib = 0.18; lactate per cell with vemurafenib = 1.31
SUFU [SID134319427] → cell gain with vemurafenib = 0.24; lactate per cell with vemurafenib = 1.68
AGAP7P [SID135625653] → cell gain with vemurafenib = 0.26; lactate per cell with vemurafenib = 0.97
NLGN4X [SID134314863] → cell gain with vemurafenib = 0.69; lactate per cell with vemurafenib = 0.54
PTCHD4 [SID152148602] → cell gain with vemurafenib = -0.01; lactate per cell with vemurafenib = 3.39
SSTR5 [SID135621063] → cell gain with vemurafenib = 0.22; lactate per cell with vemurafenib = 1.34
SPESP1 [SID152149962] → cell gain with vemurafenib = 0.91; lactate per cell with vemurafenib = 0.68
GATM [SID152155511] → cell gain with vemurafenib = 0.21; lactate per cell with vemurafenib = 1.44
MKKS [SID134317530] → cell gain with vemurafenib = 0.67; lactate per cell with vemurafenib = 1.16
PAPSS1 [SID56479195] → cell gain with vemurafenib = 0.8; lactate per cell with vemurafenib = 0.84
AGK [SID56479172] → cell gain with vemurafenib = 0.63; lactate per cell with vemurafenib = 0.88
OR6Y1 [SID152147220] → cell gain with vemurafenib = 0.14; lactate per cell with vemurafenib = 0.48
ZBTB4 [SID134318326] → cell gain with vemurafenib = 0.62; lactate per cell with vemurafenib = 1.62
SYNE3 [SID152152796] → cell gain with vemurafenib = 0.06; lactate per cell with vemurafenib = 0.64
KLHL14 [SID135624369] → cell gain with vemurafenib = 0.75; lactate per cell with vemurafenib = 0.84
SYTL2 [SID134317775] → cell gain with vemurafenib = 0.06; lactate per cell with vemurafenib = 2.16
PPP6R1 [SID152150991] → cell gain with vemurafenib = 0.54; lactate per cell with vemurafenib = 1.12
TP63 [SID56478651] → cell gain with vemurafenib = 0.78; lactate per cell with vemurafenib = 0.64
FEZ1 [SID134317252] → cell gain with vemurafenib = 0.65; lactate per cell with vemurafenib = 0.72

3 of these entries, set out differently:
| gene | PubChem SID | cell gain with vemurafenib | lactate per cell with vemurafenib |
| --- | --- | --- | --- |
| TCFL5 | SID134314321 | -0.22 | 1.66 |
| HUS1B | SID152156059 | 0.18 | 1.31 |
| SUFU | SID134319427 | 0.24 | 1.68 |
